Measured values: paper PMC4751435 (2016)
Read-outs that look alike come from different tables or passages of the source. No constants are given. Whether binding was seen depends on the method and setting. In cells and extracts the contact can be indirect. For some assays here: Binding can be weak; no strength is given. For some assays here: Where a sequence is shown, tags or fusion partners need not be part of it. One block for each molecule: values may come before it.

The chains behind the UniProt entries cited, without tags or fusion partners. Where a name states a change or a piece, a line headed by the entry shows the natural chain unless it says otherwise.
UniProt O75925: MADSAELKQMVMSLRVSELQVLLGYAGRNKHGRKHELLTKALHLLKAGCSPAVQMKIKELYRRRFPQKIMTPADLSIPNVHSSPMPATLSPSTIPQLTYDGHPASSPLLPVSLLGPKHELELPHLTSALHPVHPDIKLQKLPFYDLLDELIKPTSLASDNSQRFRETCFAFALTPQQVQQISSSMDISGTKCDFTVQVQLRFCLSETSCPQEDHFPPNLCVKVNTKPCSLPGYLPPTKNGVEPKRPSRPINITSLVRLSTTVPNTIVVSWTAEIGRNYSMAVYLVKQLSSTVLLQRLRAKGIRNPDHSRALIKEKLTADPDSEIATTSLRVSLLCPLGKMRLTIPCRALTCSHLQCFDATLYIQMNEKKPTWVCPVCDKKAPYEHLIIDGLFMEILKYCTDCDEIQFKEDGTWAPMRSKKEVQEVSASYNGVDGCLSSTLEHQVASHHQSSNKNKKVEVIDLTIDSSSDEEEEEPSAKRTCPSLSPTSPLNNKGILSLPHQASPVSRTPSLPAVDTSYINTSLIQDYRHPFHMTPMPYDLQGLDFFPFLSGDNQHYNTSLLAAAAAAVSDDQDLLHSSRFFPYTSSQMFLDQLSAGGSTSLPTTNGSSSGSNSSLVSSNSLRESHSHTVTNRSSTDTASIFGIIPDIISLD
UniProt P61956: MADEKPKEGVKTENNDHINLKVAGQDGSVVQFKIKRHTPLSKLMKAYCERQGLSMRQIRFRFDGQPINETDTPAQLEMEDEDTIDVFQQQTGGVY
UniProt P55854: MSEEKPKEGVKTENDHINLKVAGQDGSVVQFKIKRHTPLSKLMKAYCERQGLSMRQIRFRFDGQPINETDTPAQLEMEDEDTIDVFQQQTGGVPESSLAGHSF
UniProt O15409: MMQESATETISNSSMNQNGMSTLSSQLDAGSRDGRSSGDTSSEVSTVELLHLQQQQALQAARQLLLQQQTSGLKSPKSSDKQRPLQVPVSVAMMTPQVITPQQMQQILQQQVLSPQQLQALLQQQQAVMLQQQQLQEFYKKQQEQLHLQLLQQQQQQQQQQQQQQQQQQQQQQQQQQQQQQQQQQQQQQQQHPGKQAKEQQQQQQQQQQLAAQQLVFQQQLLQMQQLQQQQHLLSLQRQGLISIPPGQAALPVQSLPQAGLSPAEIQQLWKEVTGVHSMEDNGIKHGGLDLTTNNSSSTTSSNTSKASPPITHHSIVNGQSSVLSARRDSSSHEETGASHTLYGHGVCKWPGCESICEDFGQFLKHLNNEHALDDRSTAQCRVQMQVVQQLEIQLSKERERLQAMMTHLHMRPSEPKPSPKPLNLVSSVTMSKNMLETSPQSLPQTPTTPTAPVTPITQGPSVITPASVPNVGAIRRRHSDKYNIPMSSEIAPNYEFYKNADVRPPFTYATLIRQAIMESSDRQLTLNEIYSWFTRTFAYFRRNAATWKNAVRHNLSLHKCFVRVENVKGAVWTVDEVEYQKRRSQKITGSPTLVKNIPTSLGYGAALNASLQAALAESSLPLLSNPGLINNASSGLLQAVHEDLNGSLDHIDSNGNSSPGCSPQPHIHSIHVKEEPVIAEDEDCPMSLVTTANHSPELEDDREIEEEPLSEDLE

Key:
Assay in all cases: FRET or BRET; BRET in live HEK293 cells transfected with a Renilla luciferase fusion (donor) and a YFP fusion (acceptor); control donor a nuclear-targeted luciferase; mean corrected BRET ratios, n = 3
[1] = biological target: YFP-PIAS1 C350S mutant (human) (UniProt O75925)
[2] = biological target: YFP-SUMO2 alanine mutant (AA) (human) (UniProt P61956)
[3] = biological target: YFP-SUMO3 (wild-type, GG) (human) (UniProt P55854)
[4] = biological target: YFP-SUMO3 alanine mutant (AA) (human) (UniProt P55854)
[5] = biological target: YFP-SUMO3 (wild-type, GG) (human) (UniProt P55854); remark: listed apart in the source

binding [1]: no binding | binding [2]: no binding | binding [3]: binds | binding [4]: no binding
Molecule: luciferase-FOXP2 (wild-type, full-length 1-715) (from UniProt O15409 1-715)

binding [2]: no binding | binding [3]: binds | binding [4]: no binding
Molecule: luciferase-FOXP2 K674R mutant (from UniProt O15409 1-715)

binding [5]: binds
B1: luciferase-FOXP1 (protein, UniProt Q9H334 1-677)
chain: MMQESGTETKSNGSAIQNGSGGSNHLLECGGLREGRSNGETPAVDIGAADLAHAQQQQQQALQVARQLLLQQQQQQQVSGLKSPKRNDKQPALQVPVSVAMMTPQVITPQQMQQILQQQVLSPQQLQVLLQQQQALMLQQQQLQEFYKKQQEQLQLQLLQQQHAGKQPKEQQQVATQQLAFQQQLLQMQQLQQQHLLSLQRQGLLTIQPGQPALPLQPLAQGMIPTELQQLWKEVTSAHTAEETTGNNHSSLDLTTTCVSSSAPSKTSLIMNPHASTNGQLSVHTPKRESLSHEEHPHSHPLYGHGVCKWPGCEAVCEDFQSFLKHLNSEHALDDRSTAQCRVQMQVVQQLELQLAKDKERLQAMMTHLHVKSTEPKAAPQPLNLVSSVTLSKSASEASPQSLPHTPTTPTAPLTPVTQGPSVITTTSMHTVGPIRRRYSDKYNVPISSADIAQNQEFYKNAEVRPPFTYASLIRQAILESPEKQLTLNEIYNWFTRMFAYFRRNAATWKNAVRHNLSLHKCFVRVENVKGAVWTVDEVEFQKRRPQKISGNPSLIKNMQSSHAYCTPLNAALQASMAENSIPLYTTASMGNPTLGNLASAIREELNGAMEHTNSNESDSSPGRSPMQAVHPVHVKEEPLDPEEAEGPLSLVTTANHSPDFDHDRDYEDEPVNEDME
